From the supplement of paper PMC8728848
This is one part of the list.

Columns and labels:
Experiment in all cases: glycan array binding signal (z-score within array); higher = stronger binding
Settings in all cases: glycan notation: IUPAC condensed, linker removed
Gal6S(b1-4)Glc6S = target: Gal6S(b1-4)Glc6S
How it was run: (§1)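 Negative Z-scores can be read as non-binding. The Z-score is calculated within each array and then averaged across arrays of one protein sequence at different concentrations or buffers and across linkers. Arrays, 3228 in all, were curated from the Consortium for Functional Glycomics database and kept only where the protein sequence was available.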

Gal6S(b1-4)GlcNAc = target: Gal6S(b1-4)GlcNAc
How it was run: as §1

Gal6S(b1-4)GlcNAc6S = target: Gal6S(b1-4)GlcNAc6S
How it was run: as §1

GalNAc(a1-3)Gal = target: GalNAc(a1-3)Gal
How it was run: as §1

GalNAc(a1-3)GalNAc = target: GalNAc(a1-3)GalNAc
How it was run: as §1

[1] = target: GalNAc(a1-3)GalNAc(b1-3)Gal(a1-4)Gal(b1-4)Glc
How it was run: as §1

[2] = target: GalNAc(a1-3)GalNAc(b1-3)Gal(a1-4)Gal(b1-4)GlcNAc
How it was run: as §1

GalNAc(b1-3)Gal = target: GalNAc(b1-3)Gal
How it was run: as §1

[3] = target: GalNAc(b1-3)Gal(a1-4)Gal(b1-4)GlcNAc
How it was run: as §1

[4] = target: GalNAc(b1-3)Gal(a1-4)Gal(b1-4)GlcNAc(b1-3)Gal(b1-4)Glc
How it was run: as §1

[5] = target: GalNAc(b1-3)Gal(a1-6)Gal(b1-4)Glc
How it was run: as §1

GalNAc(b1-3)GalNAc = target: GalNAc(b1-3)GalNAc
How it was run: as §1

GalNAc(b1-3)GlcNAc = target: GalNAc(b1-3)GlcNAc
How it was run: as §1

GalNAc(b1-4)Gal(b1-4)Glc = target: GalNAc(b1-4)Gal(b1-4)Glc
How it was run: as §1

GalNAc(b1-4)GlcNAc = target: GalNAc(b1-4)GlcNAc
How it was run: as §1

[6] = target: GalNAc(b1-4)GlcNAc(b1-2)Man
How it was run: as §1

[7] = target: GalNAc(b1-4)GlcNAc(b1-2)Man(a1-3)[GalNAc(b1-4)GlcNAc(b1-2)Man(a1-6)]Man(b1-4)GlcNAc(b1-4)GlcNAc
How it was run: as §1

[8] = target: GalNAc(b1-4)GlcNAc(b1-3)GalNAc(b1-4)GlcNAc
How it was run: as §1

GalNAc(b1-4)GlcNAc6S = target: GalNAc(b1-4)GlcNAc6S
How it was run: as §1

GalNAc(b1-6)GalNAc = target: GalNAc(b1-6)GalNAc
How it was run: as §1

GalNAc3S(b1-4)GlcNAc = target: GalNAc3S(b1-4)GlcNAc
How it was run: as §1

GalNAc3S(b1-4)GlcNAc3S = target: GalNAc3S(b1-4)GlcNAc3S
How it was run: as §1

[9] = target: GalNAc3S(b1-4)[Fuc(a1-3)]GlcNAc
How it was run: as §1

GalNAc4S6S(b1-4)GlcNAc = target: GalNAc4S6S(b1-4)GlcNAc
How it was run: as §1

GalNAc6S(b1-4)GlcNAc = target: GalNAc6S(b1-4)GlcNAc
How it was run: as §1

Glc(a1-4)Glc = target: Glc(a1-4)Glc
How it was run: as §1

[10] = target: Glc(a1-4)Glc(a1-4)Glc(a1-4)Glc
How it was run: as §1

Glc(a1-6)Glc(a1-6)Glc = target: Glc(a1-6)Glc(a1-6)Glc
How it was run: as §1

[11] = target: Glc(a1-6)Glc(a1-6)Glc(a1-6)Glc
How it was run: as §1

Glc(b1-4)Glc = target: Glc(b1-4)Glc
How it was run: as §1

Glc(b1-6)Glc = target: Glc(b1-6)Glc
How it was run: as §1

GlcA(b1-3)Gal = target: GlcA(b1-3)Gal
How it was run: as §1

GlcA(b1-3)GlcNAc = target: GlcA(b1-3)GlcNAc
How it was run: as §1

GlcA(b1-6)Gal = target: GlcA(b1-6)Gal
How it was run: as §1

[12] = target: GlcA3S(b1-3)Gal(b1-4)GlcNAc(b1-2)Man
How it was run: as §1

[13] = target: GlcA3S(b1-3)Gal(b1-4)GlcNAc(b1-3)Gal(b1-4)Glc
How it was run: as §1

[14] = target: GlcNAc(a1-3)Gal(b1-4)GlcNAc
How it was run: as §1

B1: PX15642A-pgi-501-20-501 (Parabacteroides gingivalis) (protein)
chain: CELDRDPEGKDFQQPYTSFVQTKQNRDGLYALLRNTENPRMHFYQELQSDMYCTTITDGNSLAPFVNWDLGILNDHGRADEDEVSGIAGYYFVYNRLNQQANAFVNNTEAALQNQVYKNSTEIANAKSFLAEGKVLQALAIWRLMDRFSFHESVTEVNSGAKDLGVILLKEYNPGYIGPRATKAQCYDYILSRLSEAIEVLPENRESVLYVSRDYAYALRARIYLALGEYGKAAADAKMVVDKYPLIGAADASEFENIYRSDANNPEIIFRGFASATLGSFTATTLNGAAPAGKDIKYNPSAVPFQWVVDLYENEDFRKSVYIAKVVKKDKGYLVNKFLEDKAYRDVQDKPNLKVGARYFSVAEVYLILVESALQTGDTPTAEKYLKALSKARGAEVSVVNMEALQAERTRELIGEGSRLRDMVRWSIPNNHDAFETQPGLEGFANTTPLKAQAPVGFYAYTWEFPQRDRQTNPQLIKNWPI
- glycan array binding signal (z-score) (Gal6S(b1-4)Glc6S): -0.22
- glycan array binding signal (z-score) (Gal6S(b1-4)GlcNAc): -0.272
- glycan array binding signal (z-score) (Gal6S(b1-4)GlcNAc6S): -0.062
- glycan array binding signal (z-score) (GalNAc(a1-3)Gal): 0.395
- glycan array binding signal (z-score) (GalNAc(a1-3)GalNAc): 0.045
- glycan array binding signal (z-score) [1]: -0.054
- glycan array binding signal (z-score) [2]: -0.152
- glycan array binding signal (z-score) (GalNAc(b1-3)Gal): -1.07
- glycan array binding signal (z-score) [3]: 0.004
- glycan array binding signal (z-score) [4]: -0.279
- glycan array binding signal (z-score) [5]: -0.823
- glycan array binding signal (z-score) (GalNAc(b1-3)GalNAc): -0.872
- glycan array binding signal (z-score) (GalNAc(b1-3)GlcNAc): -0.542
- glycan array binding signal (z-score) (GalNAc(b1-4)Gal(b1-4)Glc): 0.047
- glycan array binding signal (z-score) (GalNAc(b1-4)GlcNAc): 0.727
- glycan array binding signal (z-score) [6]: 0.118
- glycan array binding signal (z-score) [7]: 1.15
- glycan array binding signal (z-score) [8]: 5.6
- glycan array binding signal (z-score) (GalNAc(b1-4)GlcNAc6S): -0.092
- glycan array binding signal (z-score) (GalNAc(b1-6)GalNAc): -0.899
- glycan array binding signal (z-score) (GalNAc3S(b1-4)GlcNAc): 0.044
- glycan array binding signal (z-score) (GalNAc3S(b1-4)GlcNAc3S): 0.048
- glycan array binding signal (z-score) [9]: -0.47
- glycan array binding signal (z-score) (GalNAc4S6S(b1-4)GlcNAc): 0.354
- glycan array binding signal (z-score) (GalNAc6S(b1-4)GlcNAc): -1.07
- glycan array binding signal (z-score) (Glc(a1-4)Glc): -0.101
- glycan array binding signal (z-score) [10]: -0.549
- glycan array binding signal (z-score) (Glc(a1-6)Glc(a1-6)Glc): 1.35
- glycan array binding signal (z-score) [11]: -0.152
- glycan array binding signal (z-score) (Glc(b1-4)Glc): -0.774
- glycan array binding signal (z-score) (Glc(b1-6)Glc): -0.254
- glycan array binding signal (z-score) (GlcA(b1-3)Gal): -0.935
- glycan array binding signal (z-score) (GlcA(b1-3)GlcNAc): 0.443
- glycan array binding signal (z-score) (GlcA(b1-6)Gal): -0.172
- glycan array binding signal (z-score) [12]: 0.025
- glycan array binding signal (z-score) [13]: -0.158
- glycan array binding signal (z-score) [14]: -0.268
